Reference: PubChem BioAssay AID493014 (National Center for Advancing Translational Sciences (NCATS), 2011)
The list shows a part of the results. Shown are side measurements of this screen, not its main read-out; they come without a call. Most of these compounds were active or inconclusive in the main read-out, so they are no random draw. Potencies come from curve fits of mixed quality, noted in brackets.

Assay: qHTS Assay to Find Inhibitors of Chronic Active B-Cell Receptor Signaling
Conditions: ABC-DLBCL IkBa-CBG/CBR reporter, luminescence ratio (green luciferase fused to IkBa over red control in TMD8 lymphoma cells), 4 h
How it was run: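 TMD8 human ABC-DLBCL cells with doxycycline-inducible IκBα–green luciferase fusion and unfused red luciferase, in 0.5% FBS medium; compounds up to 46 uM, 4 h at 37C. Green/red luminescence ratio, filter-overlap corrected, fitted to concentration-response curves.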

[1] = measured here: CBR red luminescence, cell number
[2] = measured here: IkBa-CBG green luminescence

Structure (SMILES) | AC50 [1] | AC50 [2]
CCC1CCCCN1C(=O)COC(=O)CN(C)S(=O)(=O)c1ccc(NC(C)=O)cc1 (stereo not given) | 14.6 µM [rising, partial curve, poor fit] | 
CCOC(=O)c1sc(NC(=O)CSC(=S)N2CCN(C)CC2)nc1C | 6.31 µM [falling, partial curve] | 
O=c1cc(NCc2ccco2)c2ccccc2o1 | 4.11 µM [falling, partial curve, poor fit] | 
CC(=O)Cc1nsc(NC(=O)c2ccc(-c3ccc(Cl)cc3Cl)o2)n1 | 29.1 µM [falling, single point] | 
COC(=O)C1=CN(c2cccc(C)c2)C=C(C(=O)OC)C1c1cc(OC)c(O)c([N+](=O)[O-])c1 | 0.631 µM [falling, partial curve, poor fit] | 
O=C(c1cc(-c2ccccc2)n[nH]1)N1CCc2c([nH]c3ccccc23)C1c1ccccn1 (stereo not given) | 6.31 µM [rising, full curve, poor fit] | 
Clc1cccc(/C=N/Nc2nc(Cl)nc3ccccc23)c1 | 1.26 µM [falling, partial curve, poor fit] | 
O=C(/C=C/c1ccc(Br)cc1)c1ccco1 | 29.1 µM [rising, single point] | 29.1 µM [falling, partial curve, poor fit]
CC(=O)Nc1oc(-c2cccc3ccccc23)nc1C#N | 1.64 µM [rising, full curve] | 
Cc1cc(NS(=O)(=O)c2ccc(NC(=S)NC(=O)/C=C/c3ccccc3)cc2)no1 | 6.31 µM [falling, partial curve, poor fit] | 
Cc1c(C(=O)NCc2ccccc2F)oc2ccccc12 | 1 µM [rising, full curve] | 
C=CCN1C(=O)CS/C1=C(\C#N)S(=O)(=O)c1ccc(C)cc1 | 1.64 µM [rising, partial curve, poor fit] | 
COc1ccccc1NC(=O)c1cccc(S(=O)(=O)N2CCN(Cc3ccccc3)CC2)c1 | 2.91 µM [falling, partial curve, poor fit] | 
COCCNC(=O)/C(C#N)=C/c1c(N2CCCCCC2)nc2c(C)cccn2c1=O | 25.1 µM [falling, single point] | 
S=C(NCCc1ccc(Cl)cc1)NC1CCCCC1 | 12.6 µM [falling, partial curve] | 
Cc1cc(C)c(NC(=O)CNC(=O)COC(=O)CN2C(=O)NC3(CCCC3)C2=O)c(C)c1 | 8.2 µM [rising, partial curve, poor fit] | 
CCNC(=O)C1CC(=O)N(Cc2ccc3c(c2)OCO3)C(=Nc2ccc(OCC)cc2)S1 (stereo not given) | 1.3 µM [falling, partial curve] | 
Cc1ccc(S(=O)(=O)NCc2ccc(C(=O)NC3CCCCC3)cc2)cc1 | 35.5 µM [rising, single point] | 
CCCCCCn1c(=O)c(F)cn(Cc2ccc(OC)c([N+](=O)[O-])c2)c1=O | 2.59 µM [rising, full curve, poor fit] | 
C[n+]1ccc(/C=C/c2ccccc2O)c2ccccc21 | 3.16 µM [falling, single point] | 
CS(=O)(=O)Nc1ccc(C2=NN(C(=O)c3ccco3)C(c3ccccc3F)C2)cc1 (stereo not given) | 22.4 µM [falling, single point] | 

Structure (SMILES) | AC50 [1] | AC50 [2]
COc1ccc(CC(=O)n2[nH]c(=O)cc(C)c2=O)cc1OC | 14.1 µM [falling, partial curve, poor fit] | 
O=C(CNC(=S)N(Cc1ccccc1Cl)C1CCCC1)NCCCN1CCOCC1 | 22.4 µM [falling, single point] | 
Cc1ccc(NC(=O)CCNC(=O)c2ccc(Cl)cc2)nc1 | 17.8 µM [falling, single point] | 
O=C1CC(SC(=Nc2ccccc2)Nc2ccccc2)C(=O)N1c1ccc(Cl)c(Cl)c1 (stereo not given) | 29.1 µM [falling, single point] | 
O=C(CCNC(=O)N1CC(=O)Nc2ccccc21)NCc1cccc(Cl)c1 | 5.62 µM [rising, single point] | 
COc1cc(/C=C2/C(=O)ON=C2C)cc(Cl)c1O | 5.62 µM [rising, single point] | 
CCCc1cc(=O)[nH]c(NCCc2ccccc2)n1 | 5.01 µM [rising, partial curve, poor fit] | 
CCOc1ccc(-c2nc(CSCC(=O)N3CCN(c4cccc(OC)c4)CC3)c(C)o2)cc1 | 25.1 µM [falling, single point] | 
CCOC(=O)c1c(NC(=O)c2nn(CC)cc2Br)c(C#N)nn1-c1ccccc1 | 10.3 µM [falling, partial curve] | 
Cc1nnc(SCC(=O)Nc2nc(-c3ccc(F)cc3)cs2)[nH]c1=O | 2.82 µM [rising, full curve, poor fit] | 
CC(=O)N1CCN(CC(=O)NC(=O)Nc2ccc3c(c2)OCCO3)CC1 | 29.1 µM [falling, partial curve, poor fit] | 
CCOC(=O)c1cnc2c(N=Nc3ccccc3)c(N)nn2c1N | 0.0891 µM [falling, full curve, poor fit] | 
Cc1cnn(-c2ccc3nnc(-c4ccc(Cl)cc4)n3n2)c1 | 0.447 µM [falling, full curve] | 
Nc1nnc(SCC(=O)c2cccc([N+](=O)[O-])c2)s1 | 10 µM [rising, partial curve, poor fit] | 
CCC(CC)c1nnc(NC(=O)c2ccc([N+](=O)[O-])cc2)s1 | 2.31 µM [rising, partial curve] | 
Cc1ccc(NC(=S)NC(=O)c2sc3ccccc3c2Cl)c(C(=O)O)c1 | 11.2 µM [falling, partial curve] | 
Cc1ccnc(N2C3CCC2CC(O)(c2ccccc2)C3)n1 (stereo not given) | 35.5 µM [rising, single point] | 
S=C1SCN(Cc2ccccn2)CN1Cc1ccco1 | 0.562 µM [falling, partial curve, poor fit] | 
CCCC(=O)Nc1nnc(-c2ccc(Cl)s2)o1 | 16.4 µM [falling, single point] | 
Cc1cc(C)c(OCC(=O)Nc2cccc(NC(=O)c3ccco3)c2)c(Br)c1 | 22.4 µM [falling, single point] | 
O=c1[nH]c(C2CCN(S(=O)(=O)c3ccccc3)CC2)nc2c1nnn2Cc1ccc2c(c1)OCCO2 | 10 µM [falling, partial curve, poor fit] | 

Some of these compounds in order of molar mass, falling:
Structure (SMILES) | AC50 [1] | AC50 [2]
O=C(CCNC(=O)N1CC(=O)Nc2ccccc21)NCc1cccc(Cl)c1 | 5.62 µM [rising, single point] | 
Cc1nnc(SCC(=O)Nc2nc(-c3ccc(F)cc3)cs2)[nH]c1=O | 2.82 µM [rising, full curve, poor fit] | 
CCOC(=O)c1cnc2c(N=Nc3ccccc3)c(N)nn2c1N | 0.0891 µM [falling, full curve, poor fit] | 

Additional structures:

Structure (SMILES) | AC50 [1] | AC50 [2]
COc1ccc([C@H]2[C@H](C(=O)C(C)(C)C)N3N=Cc4ccccc4C3[C@]23N=C(c2ccccc2)OC3=O)cc1 (stereo not given in full) | 3.98 µM [rising, partial curve] | 
CCOc1ccc(CCNC(=O)C2CCN(S(=O)(=O)N3CCCCC3)CC2)cc1OCC |  | 5.8 µM [falling, partial curve, poor fit]
COc1ccccc1C1CC(c2ccc(Br)cc2)=NN1C(=O)c1cccnc1 (stereo not given) | 3.26 µM [falling, full curve, poor fit] | 
COc1cccc(Cn2cccc(NC(=O)Nc3ccc(C#N)cc3)c2=O)c1 | 11.2 µM [rising, partial curve, poor fit] | 
C=CCN(CC=C)CCOc1ccc2ccccc2c1 | 35.5 µM [rising, single point] | 
O=c1c2ccc(Cl)cc2[nH]c(=S)n1CCCN1CCOCC1 | 3.55 µM [falling, partial curve, poor fit] | 
COc1ccc(/C=N/NC(=O)c2ccccc2O)cc1Cn1nnc2ccccc21 | 7.94 µM [falling, partial curve] | 
COc1ccc(-c2oc3ccc(-c4cc(OC)c(OC)c(OC)c4)cc3c2C(=O)c2ccc(OC)nc2)cc1 | 3.55 µM [rising, partial curve] | 6.31 µM [falling, partial curve, poor fit]
COc1ccccc1NC(=O)COC(=O)c1cc(C)nc2ccccc12 | 2.06 µM [falling, full curve] | 
C=C(c1cccc2ccccc12)P(=O)(O)O | 1.16 µM [falling, full curve] | 
CC(C)(C)c1ccc(/C=C2\CCn3c2nc2cc(C(=O)O)ccc2c3=O)cc1 | 10 µM [rising, partial curve, poor fit] | 
CC(=O)c1ccc(NC(=O)CCC(=O)OCC(=O)c2cccc([N+](=O)[O-])c2)cc1 | 12.6 µM [falling, partial curve] | 
O=C(COc1ccccc1Cl)Nc1cc(Cl)ccc1O | 8.91 µM [falling, partial curve, poor fit] | 
COc1cc(OC)c(NC(=O)c2ccccc2F)cc1Cl | 5.01 µM [rising, partial curve, poor fit] | 
CCOc1ccccc1N1CC(C(=O)Nc2cccc(S(=O)(=O)N3CCCCC3)c2)CC1=O (stereo not given) | 1.58 µM [rising, partial curve, poor fit] | 
O=C(Cn1nnc(-c2ccccc2)n1)OCc1csc(-c2ccccc2)n1 | 2.51 µM [rising, full curve, poor fit] | 
COc1cc(S(=O)(=O)N2CCN(Cc3ccccc3)CC2)ccc1Br | 14.6 µM [falling, partial curve, poor fit] | 
COc1ccc(C(=O)NNC(=S)NC(=O)C(C)(C)C)cc1 | 31.6 µM [rising, single point] | 35.5 µM [falling, single point]
CCCCc1nc(N2CCN(C(=O)c3ccco3)CC2)c(C#N)c2c1CCCC2 | 15.8 µM [falling, single point] | 
CCOC(=O)C1CCN(C/C=C/c2ccccc2OC)CC1 | 2.31 µM [falling, partial curve] | 

Pulled by structure from the list above, 2 records:
Structure (SMILES) | AC50 [1] | AC50 [2]
O=C(COc1ccccc1Cl)Nc1cc(Cl)ccc1O | 8.91 µM [falling, partial curve, poor fit] | 
COc1ccccc1C1CC(c2ccc(Br)cc2)=NN1C(=O)c1cccnc1 (stereo not given) | 3.26 µM [falling, full curve, poor fit] | 
